The values below come from PubChem BioAssay AID493014 (National Center for Advancing Translational Sciences (NCATS), 2011).

This is one part of the list. These are further read-outs of the screen, such as a control signal, another cell line or another target. No call is given for them. Compounds called inactive in the main read-out are mostly missing here. Words in brackets tell the shape of the fitted curve; partial curves, single points and poor fits give uncertain potencies.

This test in a line: qHTS Assay to Find Inhibitors of Chronic Active B-Cell Receptor Signaling. The settings on record: ABC-DLBCL IkBa-CBG/CBR reporter, luminescence ratio (green luciferase fused to IkBa over red control in TMD8 lymphoma cells), 4 h. The method in brief: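 Doxycycline induced both beetle luciferases in TMD8 lymphoma cells; IKK-driven degradation limits the IkappaBalpha-fused green signal, while red luminescence normalises for cell number and nonspecific effects. Compounds tested up to 46 uM, 4 hrs.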
A general note: qHTS replaces the single test concentration by a dilution series.

The mark [1] stands for this setting: measured here: CBR red luminescence, cell number.
Where [2] appears, read: measured here: IkBa-CBG green luminescence.

By AC50 is commonly meant the concentration giving half of the maximal activity seen. As to `Nc1cc2c(cc1Cl)N(Cc1ccccc1)C(=O)CO2`, the AC50 under setting [1] was 29.1 µM [rising, single point].
For the compound `Cc1c(Nc2c3c(c(C#N)c4nc5ccccc5n24)CCC3)c(=O)n(-c2ccccc2)n1C`, under setting [1], the AC50 is 0.631 µM [falling, partial curve, poor fit].
Regarding `Cc1ccc2c(C)nc(NC3=NCN(CCc4ccccc4)CN3)nc2c1`, the AC50 under setting [1] was 5.01 µM [falling, partial curve].
The same measure, in the same setting: as for `COc1ccc(C(=O)/C=C/Nc2cccc(O)c2)cc1`, the figure is 25.9 µM [falling, single point].
Take `Cc1ccc(-c2cc(C(=O)N3CCCCCC3)no2)cc1`: the concentration at half-maximal activity (AC50) under setting [1] was 11.2 µM [falling, partial curve, poor fit].
On to `COc1cccc(N2CCN(Cc3ccsc3)CC2)c1`, for which, under setting [1], the AC50 is 29.1 µM [rising, single point].
Still for that read-out and setting: in the case of `COc1ccc(OC)c(/C=N/N=C(\N)c2nonc2N)c1` it was 10 µM [falling, single point].
As for `CC1S/C(=N/N=C2CCCCC2)NC1=O` (stereo not given), the AC50 under setting [2] is 20.6 µM [falling, single point].
In the case of `COc1ccc2c(c1)c(C(=O)N/N=C/c1ccc(O)c(O)c1)c(C)n2C`, the AC50 under setting [1] was 29.1 µM [falling, single point].
Take `Oc1ccccc1CNc1ncc(Br)cc1Br`: the AC50 under setting [1] was 35.5 µM [rising, single point].
With `Cc1cc(Oc2ccc(-c3ccccc3)cc2)n2ncnc2n1`, the AC50 under setting [1] was 4.47 µM [falling, full curve].
On the same count and under the same terms, in the case of `CCOC(=O)c1c(-c2ccc(OC)cc2)oc2cc(Br)c(O)cc12` it was 14.1 µM [rising, partial curve, poor fit]; in that of `CCOCC(=O)Nc1nc2ccccc2s1`, 20.6 µM [falling, partial curve].
Regarding `Cc1ccc(-n2c([C@@H]3C[C@H]3c3ccccc3)n[nH]c2=S)cc1`, the half-maximal activity concentration (AC50) under setting [1] was 9.2 µM [rising, partial curve, poor fit].
Turning to `Oc1ccccc1OCCOc1ccccc1OCCOc1ccccc1O`, the AC50 under setting [1] was 11.2 µM [falling, partial curve, poor fit].
Same read-out and setting: as for `Cc1cc([N+](=O)[O-])nn1CC(=O)NCc1ccccc1`, the figure is 15.8 µM [rising, single point]; as for `Clc1cccc(NCc2nnc(SCc3ccccc3Cl)o2)c1`, 29.1 µM [rising, single point]; as for `CC(C)(C)c1nnc(NC(=O)CCS(=O)(=O)Cc2ccccc2)s1`, 14.1 µM [falling, partial curve].
Same read-out and setting: as for `c1ccc2c(c1)CCCN2Cc1nnnn1CC1CCCO1` (stereo not given), the figure is 11.6 µM [rising, single point]; as for `COc1ccc(-c2nn(-c3ccccc3)cc2C(=O)Nc2nccs2)cc1`, 0.326 µM [falling, full curve, poor fit].
On to `CCC1CCCCN1C(=O)COc1ccccc1NC(C)=O` (stereo not given), for which the AC50 under setting [1] is 22.4 µM [falling, single point].
The same measure, in the same setting: in the case of `O=C1CCCC2=C1Sc1ccccc1N2` it was 15.8 µM [falling, partial curve, poor fit].
`Cn1nnc2c[n+](CC(=O)c3ccc(Cl)cc3)cc(Br)c21`: the AC50 under setting [1] is 35.5 µM [rising, partial curve, poor fit] and the concentration at half-maximal activity (AC50) under setting [2] was 35.5 µM [falling, single point].
In the case of `Cc1cc(C)nc(SCc2n[nH]c(=S)n2C)n1`, the AC50 under setting [1] was 29.1 µM [rising, single point].
Still for that read-out and setting: in the case of `CNS(=O)(=O)c1cc(NC(=O)c2cnc(SC)n2-c2ccccc2)ccc1C` it was 35.5 µM [falling, single point]; in that of `CCOc1cc(/C=N/NC(=O)c2cc(-c3ccccc3)nc3ccccc23)ccc1O`, 2.51 µM [falling, full curve, poor fit].
As for `N#C/C(=C(/O)c1ccc(F)cc1)c1nc2ccccc2s1`, under setting [1], the AC50 was 0.447 µM [falling, full curve].
In the case of `O=[N+]([O-])c1ccccc1OCCCOc1cccc2cccnc12`, the AC50 under setting [1] was 12.6 µM [rising, partial curve].
`CC(C)CC(=O)NN(C)c1nc(-c2ccccc2)nnc1C(F)(F)F`: under setting [1], the half-maximal activity concentration (AC50) was 9.2 µM [rising, partial curve, poor fit].
The same measure, in the same setting: in the case of `COc1cc(/C=C/C(=O)OC2CC3CCC2(C)C3(C)C)ccc1O` (stereo not given) it was 35.5 µM [rising, single point]; in that of `CC(=O)c1sc(NC(=O)CN2C(=O)C3CC=CCC3C2=O)nc1-c1ccccc1` (stereo not given), 0.164 µM [falling, full curve, poor fit]; in that of `Cc1ccc(S(=O)(=O)N(C)C)cc1NC(=O)/C=C/c1cccs1`, 36.6 µM [rising, partial curve, poor fit].
For the compound `O=C(O)/C=C/C(=O)NNC(=O)c1ccccc1Br`, the AC50 under setting [1] is 10 µM [falling, partial curve].
For `Fc1cccc(F)c1/C=N/NC(=S)Nc1cccnc1`, the concentration at half-maximal activity (AC50) by setting is: under setting [1], 12.6 µM [rising, single point]; under setting [2], 25.1 µM [falling, single point].
Consider `O=C(Nc1ccc(Br)cc1)C(c1ccccc1)c1ccccc1`, for which the concentration at half-maximal activity (AC50) under setting [1] was 31.6 µM [rising, single point].
With `COC(=O)c1sc(N)c(C(=O)OC)c1COC(=O)C1CC(=O)N(Cc2ccco2)C1` (stereo not given), the AC50 under setting [1] was 1.03 µM [rising, partial curve, poor fit].
Still for that read-out and setting: in the case of `COc1ccc(C(=O)NCc2nnc(SCC(=O)Nc3nc4ccc(C)cc4s3)o2)cc1OC` it was 6.51 µM [rising, full curve, poor fit].
Regarding `COc1ccc2nc(SCC(=O)N(C)C3CCCCC3)c(C#N)cc2c1`, the half-maximal activity concentration (AC50) under setting [1] is 18.4 µM [falling, single point].
Consider `Cc1occc1C(=O)NN=C1C2CC3CC(C2)CC1C3`, for which the concentration at half-maximal activity (AC50) under setting [1] is 9.2 µM [falling, partial curve].
Regarding `CC(C)C1CC(CCNCc2ccc3c(c2)OCO3)(c2ccccc2)CCO1` (stereo not given), the half-maximal activity concentration (AC50) under setting [1] is 10 µM [falling, partial curve, poor fit].
`COc1cc(N=c2ssnc2Cl)c(OC)cc1Cl`: the half-maximal activity concentration (AC50) under setting [1] was 3.66 µM [rising, single point].
Same read-out and setting: in the case of `COc1ccc(OCc2cc(-c3ccc(Cl)cc3)no2)cc1` it was 12.6 µM [rising, single point]; in that of `N=c1n(CCN2CCOCC2)c2ccccc2n1Cc1ccccc1Br`, 6.31 µM [falling, single point].
